Assay results taken from patent EP0211584A1, “Antihypertensive agents” (AMERICAN HOME PRODUCTS CORPORATION, priority 1985, dated 1987).
At least one compound was matched to its structure with a doubt left.

Biological target: Ca^+2-calmodulin dependent myosin light chain phosphorylation (Bos taurus, UniProt Q28824)
Assay: Inhibition of myosin light chain phosphorylation (MLCP), Silver et al.
Assay type: biochemical
Settings: qualitative statement: the compounds and W-7 antagonise, the drugs named after "unlike" do not
Procedure: The data reported herein was obtained at a six minute time-point rather than the 1.5, 5 and 12 minute time points indicated in the superprecipita- tion assay of the Silver et al paper.
The following examples illustrate the preparation of a representative number of compounds of this invention. After each example, the Ca+2 antagonist activity of the compound is presented in terms of percent relaxation of aortic tissue (P.R.) at 10-^5M concentration. […] Inhibition of super- precipitation (Antag. of Actin-Myosin interaction) is expressed as percent inhibition (mean ± standard error of the mean for at least 3 separate experiments) at a compound concentration. In the same manner, inhibition of myosin light chain phosphorylation (Antag. of MLCP) is expressed as a percent inhibition at a compound concentration. Similarly, the antihypertensive activity is reported in terms of millimetres mercury (mmHg) systolic blood pressure (B.P.) reduction at the stated time post 50 mg/kg oral dosing or other dosing as indicated.

`COC(=O)C1=C(C)NC(C)=C(C(=O)OC)C1c1ccccc1[N+](=O)[O-]` [nifedipine, reference compound] was tested, and the “antagonise Ca^+2-calmodulin dependent myosin light chain phosphorylation and subsequent contractile protein function” value was “unlike”.
